Experimental data taken from US20250352527A1, “METHODS FOR TREATING VIRAL INFECTIONS, ORGAN INJURY, AND RELATED CONDITIONS” (Akebia Therapeutics, Inc., priority 2021, published 2025).
“Also recorded” adds a separate entry of the source. At least one structure is not confirmed: it was looked up by name or label, or the drawing left a doubt.

Test system: IL-6
Assay: Luminex cytokine levels in BAL: IL-6
Conditions: 3 mg/kg PO 1x 1 h pre-LPS; 6 hours post-LPS; vs vehicle disease control

**Q.** For `C[C@@H]1C[C@H]2[C@@H]3CCC4=CC(=O)C=C[C@]4(C)[C@@]3(F)[C@@H](O)C[C@]2(C)[C@@]1(O)C(=O)CO` [dexamethasone, reference compound], which “IL-6 levels in BAL fluids” value is on record?
**A.** Its value is “significantly reduced; also recorded: significant reductions”.
